Test results as given in publication PMC10562413.
These are yes or no findings as the source states them, for the method shown. In cells and extracts the contact can be indirect. Some results given as binding are weak or reduced against the parent protein; the word gives no strength.

The chains behind the UniProt entries cited, without tags or fusion partners.
UniProt P40763: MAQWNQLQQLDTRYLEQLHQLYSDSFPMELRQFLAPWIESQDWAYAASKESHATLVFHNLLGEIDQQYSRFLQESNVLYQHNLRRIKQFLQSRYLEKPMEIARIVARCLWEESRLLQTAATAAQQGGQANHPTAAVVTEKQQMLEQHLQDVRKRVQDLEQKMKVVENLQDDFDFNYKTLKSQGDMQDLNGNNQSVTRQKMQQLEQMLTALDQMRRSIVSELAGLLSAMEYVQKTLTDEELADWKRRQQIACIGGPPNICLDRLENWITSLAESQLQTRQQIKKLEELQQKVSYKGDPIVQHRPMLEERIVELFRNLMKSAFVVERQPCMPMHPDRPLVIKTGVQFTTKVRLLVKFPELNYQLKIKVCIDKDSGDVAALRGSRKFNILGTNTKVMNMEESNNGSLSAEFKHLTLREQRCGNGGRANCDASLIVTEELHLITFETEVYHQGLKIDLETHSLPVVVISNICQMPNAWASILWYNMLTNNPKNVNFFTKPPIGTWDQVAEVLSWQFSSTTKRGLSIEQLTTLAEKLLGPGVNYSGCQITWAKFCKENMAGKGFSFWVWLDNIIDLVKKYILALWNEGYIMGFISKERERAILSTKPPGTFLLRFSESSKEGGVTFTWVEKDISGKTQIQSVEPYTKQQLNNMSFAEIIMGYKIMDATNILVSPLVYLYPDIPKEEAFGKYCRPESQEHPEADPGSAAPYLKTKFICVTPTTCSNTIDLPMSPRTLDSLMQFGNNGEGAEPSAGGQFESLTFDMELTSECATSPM
UniProt Q96LA8: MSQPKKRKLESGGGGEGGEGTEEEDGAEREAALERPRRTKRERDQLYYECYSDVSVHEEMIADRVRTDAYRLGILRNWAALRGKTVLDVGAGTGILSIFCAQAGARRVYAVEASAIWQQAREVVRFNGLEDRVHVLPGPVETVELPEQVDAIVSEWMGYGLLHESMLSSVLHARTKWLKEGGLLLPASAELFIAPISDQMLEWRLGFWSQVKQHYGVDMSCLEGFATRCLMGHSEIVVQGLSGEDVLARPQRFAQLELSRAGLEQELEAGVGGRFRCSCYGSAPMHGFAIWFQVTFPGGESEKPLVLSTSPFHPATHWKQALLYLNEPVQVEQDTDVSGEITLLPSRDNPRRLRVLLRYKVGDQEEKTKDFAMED

Target: STAT3 (human (endogenous in MCF-7 and MDA-MB-468)) (UniProt P40763)
Assay: co-IP; endogenous proteins in NP40 lysates of MCF-7 and MDA-MB-468 cells; antibody on Protein L magnetic beads, overnight at 4 °C, Western blot

PRMT6 (from UniProt Q96LA8 1-375) (enzyme)
binding: binds
